Tested on: mutant HTT protein
Assay: Mouse population PK/PD turnover model based on BacHD mouse
Format: in vivo
Excerpt: For the development of the PK/PD relationship, the concentration of mutant HTT protein in the brain of BacHD mice and its changes after branaplam administration were used as PD biomarker (Example 1a). To increase the data base, all concentrations of the mutant HTT protein were pooled. The correlation between branaplam concentrations in plasma and the mutant HTT protein concentrations in the brain were investigated by means of a turnover model (described below) considering the inhibition of the production of mutant HTT protein in the brain. Since mutant HTT protein was determined in brain cortex and brain striatum, the PK/PD correlations were executed for both brain parts separately. […] For the execution of the population PK/PD model, the PK parameters (presented in Table 6) from the previously described population PK model were fixed and the PD parameters were calculated. The Monolix software (Version 2018R1, Lixoft) and its turnover model described in the library (pkpd/oral1_2cpt_SigmoidindirectModelinhibitionKin_TlagkaCIV1QV2R0koutimaxIC50gamma) was used to determine the PD parameters in the mouse. The PD part of the model can be described by the following equation: […]
It has to be noted, that the maximum inhibitory effect was set to 1 and the mutant HTT protein baseline, R0, was set to 1 since only relative changes to the baseline were determined in the BacHD mouse (Example 1a).

SMILES: CC1(C)CC(Oc2ccc(-c3ccc(-c4cn[nH]c4)cc3O)nn2)CC(C)(C)N1 [Compound 18, 5-(1H-pyrazol-4-yl)-2-(6-((2,2,6,6-tetramethylpiperidin-4-yl)oxy)pyridazin-3-yl)phenol]
- kout (degradation rate of mutant HTT protein) (popPD parameters (cortex)): 0.00634 h⁻¹
- kout (degradation rate of mutant HTT protein) (popPD parameters (striatum)): 0.00341 h⁻¹

— US20240216369A1, “THE USE OF A SPLICING MODULATOR FOR A TREATMENT SLOWING PROGRESSION OF HUNTINGTON'S DISEASE” (Novartis AG, priority 2019, published 2024)
